# PubChem BioAssay AID743454, Peter MacCallum Cancer Centre – 2014
# Purpose: 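Search for knock-downs that restore vorinostat killing in resistant colon cancer cells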 (primary screen)
# Cell system: human HCT116-VR colon cancer cells, selected for vorinostat resistance
# Reagent: siRNA pool against human genes, 40 nM siRNA pool
# Timing: vorinostat for 24 h, read-out about 72 h after transfection
# Treatment: vorinostat at 2.5 µM final
# Measurement: 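Two measures, CellTiter-Fluor viability and luminescent caspase 3/7 activity, each as fold change against same-plate mock wells, mean of duplicates, then screen-wide robust z-score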
# Reading the numbers: viability robust z-score: higher = more viable cells than screen typical; caspase robust z-score: higher = more caspase 3/7 activity than screen typical
# Call rule: 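Hits are knock-downs in viability class RV1/RV2 or caspase class CA1/CA2, excluding ones that killed cells in the no-drug cell-count arm; hits then retested with single siRNAs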
# The deposit covers about 18,000 reagents; shown is a random part of them. Of all reagents, 450 (2.5%) are marked active. 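Single biological run; no consistent viability z cut-off exists, so the class columns, not z-scores, define the calls.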
target gene,viability hit class,caspase hit class,viability robust z-score,caspase robust z-score,activity call
FGF6 (GeneID 2251),no change,no change,-0.74,-0.34,inactive
PEAK1 (GeneID 79834),no change,no change,1.03,-0.52,inactive
CCDC89 (GeneID 220388),no change,no change,-1.84,0.88,inactive
BCAP31 (GeneID 10134),no change,no change,-1.12,0.08,inactive
TMUB2 (GeneID 79089),no change,no change,0.06,0.3,inactive
HOXB9 (GeneID 3219),no change,no change,1.12,-0.27,inactive
SPATA31A7 (GeneID 26165),no change,no change,-0.1,0.26,inactive
NANP (GeneID 140838),no change,no change,-1.31,-1.09,inactive
ABHD14B (GeneID 84836),no change,no change,-1.84,1.38,inactive
MYO7B (GeneID 4648),no change,no change,0.72,-1,inactive
IQCN (GeneID 80726),no change,no change,0.64,-1.07,inactive
TSHZ3 (GeneID 57616),no change,no change,-0.42,2.48,inactive
INTS15 (GeneID 79034),no change,no change,-1.45,0.34,inactive
CSNK2B (GeneID 1460),no change,no change,-1.02,1.17,inactive
C2orf66 (GeneID 401027),no change,no change,-0.82,0.7,inactive
HERPUD2 (GeneID 64224),no change,no change,1.17,-0.1,inactive
ACP7 (GeneID 390928),no change,no change,1.17,-0.36,inactive
C4B (GeneID 721),no change,no change,-1.5,-0.85,inactive
FANCM (GeneID 57697),no change,no change,-0.76,-1.06,inactive
NPTN (GeneID 27020),no change,no change,-0.03,-0.64,inactive
NIBAN3 (GeneID 199786),no change,no change,-0.72,0.86,inactive
CPT2 (GeneID 1376),no change,no change,-1.04,1.38,inactive
RINT1 (GeneID 60561),no change,no change,0.24,-1.51,inactive

In a second layout: 3 of the entries above.
{"target gene": "C2orf66 (GeneID 401027)", "viability hit class": "no change", "caspase hit class": "no change", "viability robust z-score": -0.82, "caspase robust z-score": 0.7, "activity call": "inactive"}
{"target gene": "HERPUD2 (GeneID 64224)", "viability hit class": "no change", "caspase hit class": "no change", "viability robust z-score": 1.17, "caspase robust z-score": -0.1, "activity call": "inactive"}
{"target gene": "ACP7 (GeneID 390928)", "viability hit class": "no change", "caspase hit class": "no change", "viability robust z-score": 1.17, "caspase robust z-score": -0.36, "activity call": "inactive"}
